# From article PMC6515687
# No constants are given. Whether binding was seen depends on the method and setting. In cells and extracts the contact can be indirect. Binding can be weak; no strength is given. Sequences can lack the tags named with a protein.
# T1: FLAG-MOV10 (mouse) (UniProt P23249)
# T1 sequence: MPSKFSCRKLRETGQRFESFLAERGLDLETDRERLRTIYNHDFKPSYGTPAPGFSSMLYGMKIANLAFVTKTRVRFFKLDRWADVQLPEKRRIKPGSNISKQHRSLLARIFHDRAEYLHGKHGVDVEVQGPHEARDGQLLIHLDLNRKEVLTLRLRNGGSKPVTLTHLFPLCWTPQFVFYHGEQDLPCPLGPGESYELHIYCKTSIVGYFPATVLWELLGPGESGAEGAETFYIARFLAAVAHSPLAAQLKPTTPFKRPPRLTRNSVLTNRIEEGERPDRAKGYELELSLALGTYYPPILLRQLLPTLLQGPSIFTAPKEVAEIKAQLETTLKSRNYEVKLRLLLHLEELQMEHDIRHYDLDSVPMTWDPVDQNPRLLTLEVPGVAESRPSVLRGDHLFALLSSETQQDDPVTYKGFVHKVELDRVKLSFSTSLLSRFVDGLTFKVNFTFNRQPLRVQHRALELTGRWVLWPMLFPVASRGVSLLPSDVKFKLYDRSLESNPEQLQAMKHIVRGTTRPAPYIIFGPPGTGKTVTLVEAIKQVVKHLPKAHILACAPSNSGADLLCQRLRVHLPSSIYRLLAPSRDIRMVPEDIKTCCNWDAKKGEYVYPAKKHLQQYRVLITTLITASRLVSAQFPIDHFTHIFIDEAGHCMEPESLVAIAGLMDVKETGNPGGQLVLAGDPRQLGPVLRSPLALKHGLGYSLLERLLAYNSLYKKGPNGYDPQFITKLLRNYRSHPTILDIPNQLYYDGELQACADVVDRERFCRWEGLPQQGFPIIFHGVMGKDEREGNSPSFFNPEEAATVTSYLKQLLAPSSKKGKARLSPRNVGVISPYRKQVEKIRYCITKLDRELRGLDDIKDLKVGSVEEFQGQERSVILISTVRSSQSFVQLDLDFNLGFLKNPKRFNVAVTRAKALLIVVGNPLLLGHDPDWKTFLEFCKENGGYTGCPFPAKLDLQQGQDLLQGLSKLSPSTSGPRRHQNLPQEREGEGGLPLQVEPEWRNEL
# How the values were obtained:
# Test in all cases: co-IP; FLAG-MOV10 co-expressed with HA-SRSF1, HA-DDX5 or HA-DDX17 in HEK293T, 48 h; lysis in 50 mM Tris, 150 mM NaCl, 1 mM EDTA, 0.5% Triton, 10% glycerol; IP with anti-FLAG or anti-HA on protein A beads, 4 °C 3 h; western blot with anti-FLAG and anti-HA
# FLAG-MOV10 (mouse) = biological target: T1, FLAG-MOV10 (mouse)
# HA-DDX17 (mouse) = biological target: HA-DDX17 (mouse)
# HA-DDX5 (mouse) = biological target: HA-DDX5 (mouse)
binding (FLAG-MOV10 (mouse)),binding (HA-DDX17 (mouse)),binding (HA-DDX5 (mouse)),Molecule
binds,,,HA-DDX5 (mouse)
,binds,binds,"FLAG-MOV10 (protein, UniProt P23249 1-1004) MPSKFSCRKLRETGQRFESFLAERGLDLETDRERLRTIYNHDFKPSYGTPAPGFSSMLYGMKIANLAFVTKTRVRFFKLDRWADVQLPEKRRIKPGSNISKQHRSLLARIFHDRAEYLHGKHGVDVEVQGPHEARDGQLLIHLDLNRKEVLTLRLRNGGSKPVTLTHLFPLCWTPQFVFYHGEQDLPCPLGPGESYELHIYCKTSIVGYFPATVLWELLGPGESGAEGAETFYIARFLAAVAHSPLAAQLKPTTPFKRPPRLTRNSVLTNRIEEGERPDRAKGYELELSLALGTYYPPILLRQLLPTLLQGPSIFTAPKEVAEIKAQLETTLKSRNYEVKLRLLLHLEELQMEHDIRHYDLDSVPMTWDPVDQNPRLLTLEVPGVAESRPSVLRGDHLFALLSSETQQDDPVTYKGFVHKVELDRVKLSFSTSLLSRFVDGLTFKVNFTFNRQPLRVQHRALELTGRWVLWPMLFPVASRGVSLLPSDVKFKLYDRSLESNPEQLQAMKHIVRGTTRPAPYIIFGPPGTGKTVTLVEAIKQVVKHLPKAHILACAPSNSGADLLCQRLRVHLPSSIYRLLAPSRDIRMVPEDIKTCCNWDAKKGEYVYPAKKHLQQYRVLITTLITASRLVSAQFPIDHFTHIFIDEAGHCMEPESLVAIAGLMDVKETGNPGGQLVLAGDPRQLGPVLRSPLALKHGLGYSLLERLLAYNSLYKKGPNGYDPQFITKLLRNYRSHPTILDIPNQLYYDGELQACADVVDRERFCRWEGLPQQGFPIIFHGVMGKDEREGNSPSFFNPEEAATVTSYLKQLLAPSSKKGKARLSPRNVGVISPYRKQVEKIRYCITKLDRELRGLDDIKDLKVGSVEEFQGQERSVILISTVRSSQSFVQLDLDFNLGFLKNPKRFNVAVTRAKALLIVVGNPLLLGHDPDWKTFLEFCKENGGYTGCPFPAKLDLQQGQDLLQGLSKLSPSTSGPRRHQNLPQEREGEGGLPLQVEPEWRNEL"
